{"sequences": {"note": "The chains behind the UniProt entries cited, without tags or fusion partners.", "UniProt P06733, whole entry": "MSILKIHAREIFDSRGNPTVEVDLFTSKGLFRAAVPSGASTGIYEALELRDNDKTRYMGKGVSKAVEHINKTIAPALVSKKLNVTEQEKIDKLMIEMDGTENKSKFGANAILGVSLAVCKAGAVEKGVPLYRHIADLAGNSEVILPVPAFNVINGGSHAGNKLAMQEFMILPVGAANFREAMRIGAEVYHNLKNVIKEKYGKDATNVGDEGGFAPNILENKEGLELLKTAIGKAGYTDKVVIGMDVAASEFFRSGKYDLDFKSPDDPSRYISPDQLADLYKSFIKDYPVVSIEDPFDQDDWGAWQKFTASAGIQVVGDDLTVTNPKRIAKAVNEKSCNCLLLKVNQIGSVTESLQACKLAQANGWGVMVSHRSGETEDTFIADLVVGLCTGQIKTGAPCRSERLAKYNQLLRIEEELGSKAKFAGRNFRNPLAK"}, "source": "paper doi:10.1101/2020.03.18.993774", "target": "Enolase-1 (human (endogenous in H357)) (UniProt P06733)", "test": "co-IP", "note": "No constants are given. Whether binding was seen depends on the method and setting. In cells and extracts the contact can be indirect. Some entries that bind do so weakly or less than the wild type. Where a sequence is shown, tags or fusion partners need not be part of it.", "data": [{"binder": "CKLF-like MARVEL transmembrane domain containing protein 6 (CMTM6) (protein, UniProt Q9NX76 1-183) MENGAVYSPTTEEDPGPARGPRSGLAAYFFMGRLPLLRRVLKGLQLLLSLLAFICEEVVSQCTLCGGLYFFEFVSCSAFLLSLLILIVYCTPFYERVDTTKVKSSDFYITLGTGCVFLLASIIFVSTHDRTSAEIAAIVFGFIASFMFLLDFITMLYEKRQESQLRKPENTTRAEALTEPLNA", "values": [{"measurement": "binding", "value": "binds"}]}, {"binder": "CMTM6 (Myc-DDK-tagged), from pCMV6-Entry-CMTM6 (protein, UniProt Q9NX76 1-183) MENGAVYSPTTEEDPGPARGPRSGLAAYFFMGRLPLLRRVLKGLQLLLSLLAFICEEVVSQCTLCGGLYFFEFVSCSAFLLSLLILIVYCTPFYERVDTTKVKSSDFYITLGTGCVFLLASIIFVSTHDRTSAEIAAIVFGFIASFMFLLDFITMLYEKRQESQLRKPENTTRAEALTEPLNA", "values": [{"measurement": "binding", "value": "binds"}]}]}
